Data as given in PubChem BioAssay AID1259254 (NCATS, 2017)

- Screen: 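Finding genes that stop cells copying their DNA twice in one cycle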 (primary screen)
- System: human HCT116 colorectal cancer cells
- Reagents: single siRNA against human genes
- Time to read-out: 3 days
- Detection: 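Imaged Hoechst DNA stain sorts each cell into a cycle phase by DNA amount; per plate, G2 fraction set to 0% for non-targeting and 100% for GMNN siRNA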
- Reading the numbers: G2 robust z-score and G2 cells, % of GMNN control: higher = more G2 cells, more excess DNA replication; raw share of cells in G2: higher = larger share of cells with G2 DNA content
- Active means: 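Active siRNAs have a G2 robust z of 5 or more median absolute deviations over the median, which in these data means about 38% or higher of GMNN control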
The whole screen tested about 59,000 reagents; shown is an unselected part. Of all reagents, about 1,550 (2.6%) were called active. 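G2 share is only a proxy for re-replication; each gene was hit by three separate siRNAs, and active genes were retested.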 The raw values are shown without normalisation. Reagents against one gene are numbered here. Not stated in the record: the amount of reagent.

no.	Gene	reagent	G2 robust z-score	G2 cells, % of GMNN control	raw share of cells in G2 (%)	outcome
1	C9orf50 (chromosome 9 open reading frame 50)	1	-0.411	0.0761	4.67	inactive
2	C9orf50 (chromosome 9 open reading frame 50)	2	0.795	8.56	6.71	inactive
3	C9orf50 (chromosome 9 open reading frame 50)	3	1.54	13.8	9.4	inactive
4	PRAMEF12 (PRAME family member 12)	1	0.0589	3.38	5.04	inactive
5	PRAMEF12 (PRAME family member 12)	2	-0.307	0.811	3.84	inactive
6	PRAMEF12 (PRAME family member 12)	3	-1.3	-6.16	2.23	inactive
7	REG1B (regenerating family member 1 beta)	1	0.531	6.7	7.82	inactive
8	REG1B (regenerating family member 1 beta)	2	-0.558	-0.961	3.84	inactive
9	REG1B (regenerating family member 1 beta)	3	0.0139	3.07	4.46	inactive
10	KRTAP4-6 (keratin associated protein 4-6)	1	9.58	70.4	27.5	active
11	KRTAP4-6 (keratin associated protein 4-6)	2	0.126	3.85	4.6	inactive
12	KRTAP4-6 (keratin associated protein 4-6)	3	-0.35	0.505	2.56	inactive
13	PMP22 (peripheral myelin protein 22)	1	1.25	11.7	9.96	inactive
14	PMP22 (peripheral myelin protein 22)	2	-1.22	-5.62	2	inactive
15	PMP22 (peripheral myelin protein 22)	3	0.226	4.55	5	inactive
16	FAM187B (family with sequence similarity 187 member B)	1	0.0738	3.49	5	inactive
17	FAM187B (family with sequence similarity 187 member B)	2	0.416	5.9	4.73	inactive
18	FAM187B (family with sequence similarity 187 member B)	3	-0.0256	2.79	4.04	inactive
19	JAK2 (Janus kinase 2)	1	0.046	3.29	6.69	inactive
20	JAK2 (Janus kinase 2)	2	1.23	11.7	9.34	inactive
21	JAK2 (Janus kinase 2)	3	-1	-4.1	2.58	inactive
22	CCRL2 (C-C motif chemokine receptor like 2)	1	4.53	34.8	18.3	inactive
23	CCRL2 (C-C motif chemokine receptor like 2)	2	0.378	5.63	6.48	inactive
24	CCRL2 (C-C motif chemokine receptor like 2)	3	-0.134	2.03	3.89	inactive
25	CCRL2 (C-C motif chemokine receptor like 2)	4	2.13	17.9	10.3	inactive
26	CCRL2 (C-C motif chemokine receptor like 2)	5	-0.908	-3.42	1.67	inactive
27	CCRL2 (C-C motif chemokine receptor like 2)	6	-0.809	-2.72	2.57	inactive
28	NPTX2 (neuronal pentraxin 2)	1	1.11	10.8	7.74	inactive
29	NPTX2 (neuronal pentraxin 2)	2	-0.789	-2.58	3.64	inactive
30	NPTX2 (neuronal pentraxin 2)	3	-0.0581	2.56	4.04	inactive
31	ZNF362 (zinc finger protein 362)	1	0.202	4.39	5.3	inactive
32	ZNF362 (zinc finger protein 362)	2	-0.206	1.52	3.38	inactive
33	ZNF362 (zinc finger protein 362)	3	-0.647	-1.59	2.52	inactive
34	LINC00917 (long independently transcribed non-coding RNA 917)	1	-0.889	-3.29	3.02	inactive
35	LINC00917 (long independently transcribed non-coding RNA 917)	2	2.1	17.7	9.41	inactive
36	LINC00917 (long independently transcribed non-coding RNA 917)	3	1.36	12.6	8.12	inactive
37	SHMT2 (serine hydroxymethyltransferase 2)	1	1.55	13.9	10.4	inactive
38	SHMT2 (serine hydroxymethyltransferase 2)	2	-1.25	-5.79	2.56	inactive
39	SHMT2 (serine hydroxymethyltransferase 2)	3	-0.428	-0.0424	3.94	inactive
40	GYS1 (glycogen synthase 1)	1	1.5	13.5	10.8	inactive
41	GYS1 (glycogen synthase 1)	2	-1.21	-5.58	3.02	inactive
42	GYS1 (glycogen synthase 1)	3	-1.1	-4.8	2.44	inactive
43	TP53I3 (tumor protein p53 inducible protein 3)	1	1.15	11.1	9.25	inactive
44	TP53I3 (tumor protein p53 inducible protein 3)	2	-0.481	-0.417	5.05	inactive
45	TP53I3 (tumor protein p53 inducible protein 3)	3	-0.918	-3.49	2.01	inactive
46	SLC15A1	1	-0.818	-2.79	3.59	inactive
47	SLC15A1	2	0.648	7.53	6.45	inactive
48	SLC15A1	3	2.63	21.5	12.9	inactive

Active calls (from the list above):
Gene	reagent	G2 robust z-score	G2 cells, % of GMNN control	raw share of cells in G2 (%)	outcome
KRTAP4-6 (keratin associated protein 4-6)	1	9.58	70.4	27.5	active
